Where a chain is given by its changes, count along the chain named. Results are given in words; binding and its absence hold for the method and conditions named. Binding can be weak; no strength is given.

Sequences of proteins named here, by UniProt entry; tags and fusion partners are left off. A change or cut given only in a name is not applied to a line headed by its entry.
UniProt Q6DKI7: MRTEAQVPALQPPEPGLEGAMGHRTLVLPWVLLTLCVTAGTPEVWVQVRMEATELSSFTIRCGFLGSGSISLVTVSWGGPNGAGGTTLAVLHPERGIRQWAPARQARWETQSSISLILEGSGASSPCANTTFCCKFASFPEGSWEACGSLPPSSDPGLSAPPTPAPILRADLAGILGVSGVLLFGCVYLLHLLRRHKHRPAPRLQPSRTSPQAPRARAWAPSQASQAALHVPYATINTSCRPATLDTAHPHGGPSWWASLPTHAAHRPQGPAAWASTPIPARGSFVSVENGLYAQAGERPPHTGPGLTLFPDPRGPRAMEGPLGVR

Experiment [1] concerns the target Biotinylated monkey PD-1 protein (Avitag-His Tag) (cynomolgus monkey). The experiment in a line: yeast display, flow cytometry sorting with biotinylated monkey PD-1. (In general: A flow cytometer gives signals particle by particle.)
The target of experiment [2] is his-tagged human PVRIG (h-PVRIG-his) recombinant protein (human) (UniProt Q6DKI7). Briefly: BLI (Fortebio). A general note: In BLI a coated tip is dipped into the sample, and binding shifts an interference pattern.
Experiment [3] has the same target. The experiment in a line: ELISA, plate coated with PVRIG protein. Background: An ELISA detects its analyte on a solid surface through an enzyme-linked reagent.

B1: A17 (VHH, variable region) (VHH)
VHH: EVQVVESGGGLVQPGGSLRLSCVASGLTFSDYSMSWYRQAPGKERELVAIISGSGVIAHYVDSVKGRFTISRDNAKSTVYLQMVSLKPEDRGVYYCRAVSDWDDYWGQGTQVTVSS
B1: the binding result in experiment [1] was “binds”.

B2: 30H2 (Fc fusion, not shown: a dimerising Fc or GST)
chain: EVQLVESGGGLVQPGGSLRLSCAASGFTFSGDCMGWFRQAPGKGLDEGVATIDNAGRIKYADSVKGRFTISRDNAKNSLYLQMNSLRAEDTAVYYCAAGWTFGGQCSPADWGQGTQVTVSS
Regarding B2, the binding result in experiment [2] was “binds”.

B3: 30H3 (Fc fusion, not shown: a dimerising Fc or GST)
chain: B2 chain with F27Y, T28S, F29Y
In the case of B3, the binding entry in experiment [2] is on record as “binds”.

B4: A6 (VHH, variable region) (VHH)
VHH: EVQLVESGGGLVQAGGSLRLSCAVSGRTFSSAAMGWFRQAPGKEREFVAAISWSFGSTYYADSVKGRFTISRDNAKNTVYLQMNSLKPEDTAVYYCAADPSIETMGGGWDYWGQGTQVTVSS
As to B4, the binding result in experiment [1] was “binds”.

B5: Tab5 (antibody, human IgG4 S228P, kappa, F234A L235A, V domains shown)
VH: EVQLVESGGGVVKPGGSLRLSCAASGFTFGTSSMNWVRQAPGKGLEWVAVISFDGTEIHYADSVKGRFTISRDNSKSTVFLQMNSLRPDDTALYYCAKGSGNIYFYSGMDVWGQGTTVTVSS
VL: DIQMTQSPSTLSASVGDRVTITCRAGQSISGWLAWFQQKPGKAPNLLIYETSTLESGVPSRFSGSGSGTEYTLTISSLQPDDFATYYCQQYYSYPLTFGQGTKVEIKR
Turning to B5, the binding entry in experiment [2] and in experiment [3] was “binds” in each case.

B6: 151H7 (Fc fusion, not shown: a dimerising Fc or GST)
chain: HVQLVESGGGLVQPGGSLRLSCVASASGFTYRPYCMAWFRQAPGKEREAVAGIDIFGGTTYADSVKGRFTASRDNAGFSLYLQMNSLRAEDTAVYYCAAGDSPDGRCPPLGQGLNYWGQGTMVTVSS
Consider B6, for which, in experiment [2], the binding entry is given as “binds”.

These data come from US20240376204A1.
